# Results taken from patent US20250340651A1.
# Experiments:
# [1] = biological target: MICA*08 expressed on TRAMP-C2 cells (TC2-MICA-08); assay: flow cytometry on TC2-MICA-08 cells against parental TC2 cells, 500 ng antibody in 100 µl, PE goat anti-mouse IgG
# [2] = biological target: MICA*08 expressed on TRAMP-C2 cells (TC2-MICA-08); assay: flow cytometry on TC2-MICA-08 cells against parental TC2 cells; 500 ng antibody in 100 µl
# MICA *04-His protein [3] = assay: BLI epitope binning on MICA *04-His immobilised on Ni-NTA sensors; competitor PDI-1
# [4] = biological target: Recombinant MICA*08 protein; assay: ELISA on coated recombinant antigen (1 µg/ml), goat anti-mouse IgG-HRP, OD 450 nm
# [5] = biological target: Recombinant MICA*02 protein; assay: as above
# [6] = biological target: Recombinant MICA*04 protein; assay: as above
# [7] = biological target: Recombinant MICA*09 protein; assay: as above
# [8] = biological target: MICA*08 expressed on TRAMP-C2 cells (TC2-MICA-08); assay: flow cytometry on TC2-MICA-08 cells against parental TC2 cells
# [9] = biological target: Recombinant MICA*08 protein; assay: ELISA on plate-coated recombinant protein
# [10] = biological target: Recombinant MICA*02 protein; assay: ELISA on plate-coated recombinant protein
# [11] = biological target: Recombinant MICA*04 protein; assay: ELISA on plate-coated recombinant protein
# [12] = biological target: Recombinant MICA*09 protein; assay: ELISA on plate-coated recombinant protein
# MICA *04-His protein [13] = assay: BLI epitope binning on MICA *04-His immobilised on Ni-NTA sensors; competitors PDI-1 and 3F9
binding [1],binding [2],binding (MICA *04-His protein [3]),binding [4],binding [5],binding [6],binding [7],binding [8],binding [9],binding [10],binding [11],binding [12],binding (MICA *04-His protein [13]),Binder
binds,binds,binds,binds,binds,binds,binds,binds,binds,binds,binds,binds,,"3F9.E4 (antibody, V domains shown) VH: EVQLQESGEGLVKPGGSLKLSCAASGFTFSNYAMSWVRQTPEKRLEWVAYISPGGDYIYYADTVKGRFTISRDNARNTLYLQMSSLKSEDTAMYYCTTDRRHYGSYAMDYWGQGISVTVSS VL: DIVMTQAAPSVPVTPGESVSISCRSSKSLLHSNGNTYLYWFLQRPGQSPQLLIYRMSNLASGVPDRFSGSGSGTAFTLRISRVEAEDVGVYYCMQHLEYPFTFGSGTKLEIK"
,,,binds,binds,binds,binds,,binds,binds,binds,binds,binds,"16F10.C12 (antibody, V domains shown) VH: EVQLQESGPGLVAPSQSLSITCTVSGFSLTAFGVNWVRQPPGKGLEWLGMIWGDGNTDYNSTLRSRLSISKDNSKSQVFLKLNSLQTDDTARYFCARETYYGNYAGLGYWGQGTLVTVSA VL: QIVLTQSPAIMSASIGERVTMTCTASSSVSSNYLHWYQQKPRSSPKLWIYTTSNLASGVPTRFSGSGSGTSYSLTISSMEAEDAATYYCHQFHRSPFTFGSGTKLEIK"

# Results are given in words; binding and its absence hold for the method and conditions named. Binding can be weak; no strength is given.
